In the supplement of paper PMC4635364:
Structures can show the parent of a compound that is named as a salt. Some of the results follow. Single values are uncertain here, since repeats match poorly.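 Cells: ReNCell VM human fetal ventral-midbrain neural progenitors, differentiated mitogen-free. Blinded raters compared doublecortin-stained (early neurons) or tyrosine hydroxylase-stained (dopaminergic neurons) images with untreated wells, where 0 means no change. After repeats and both raters were averaged, compounds scoring 2 or above became hits for retesting.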

The compounds below were run on ReNCell VM (assay: neuronal differentiation score (DCX+ cell fraction vs untreated, manual image score) (score (-3 to 3)); higher = more neuronal differentiation). Conditions: library: Tocriscreen; 2 uM; 2 weeks.

Neuronal differentiation score, inactive:
CN1CCN(C2=Cc3ccccc3Oc3ccc(Cl)cc32)CC1 0
Nc1nc2c(cnn2CCc2ccccc2)c2nc(-c3ccco3)nn12 0
COc1ccccc1N1CCN(CCCCNC(=O)c2ccc(-c3ccc(C(C)=O)cc3)cc2)CC1 -3
CC(C)CC(NC(=O)OCC1c2ccccc2-c2ccccc21)C(=O)O (stereo unspecified) 0
Cc1c[nH]c(=O)n(CCCN2CCN(c3ccccc3OCC(F)(F)F)CC2)c1=O 0
COc1ccc2cc([C@H](C)C(=O)O)ccc2c1 [Naproxen sodium] 0
CCCc1c(OCC(O)COc2ccc3c(=O)cc(C(=O)O)oc3c2CCC)ccc(C(C)=O)c1O (stereo unspecified) 0
Cc1cc(/C(=C/Nc2ccc(Cl)cc2)C(=O)Nc2ccc(Cl)cc2)on1 0
Oc1ccc(Nc2nc(-c3ccc(Cl)cc3)cs2)cc1 0
O=C1c2ccccc2C(Cc2ccncc2)(Cc2ccncc2)c2ccccc21 [XE 991 dihydrochloride] 0

Each compound was assayed on ReNCell VM (assay: dopaminergic neuron differentiation score (TH+ cell fraction vs untreated, manual image score) (score (0 to 3)); higher = more TH+ dopaminergic neuron differentiation). Conditions: library: LOPAC; 2 uM; 4 weeks; BDNF 10 ng/ml + GDNF 10 ng/ml.

Dopaminergic neuron differentiation score, inactive:
CCSC(=N)N [S-Ethylisothiourea hydrobromide] 0
C=CCn1c(=O)c2c(nc(-c3ccc(S(=O)(=O)O)cc3)n2C)n(C)c1=O [1-Allyl-3,7-dimethyl-8-p-sulfophenylxanthine] 0
CNCC[C@H](Oc1ccc(C(F)(F)F)cc1)c1ccccc1 [S-(+)-Fluoxetine hydrochloride] 0
CC(=O)OCC(=O)[C@@]1(O)CC[C@H]2[C@@H]3CCC4=CC(=O)CC[C@]4(C)[C@H]3C(=O)C[C@@]21C [Cortisone 21-acetate] 0

Same assay, conditions: library: Natural; 2 uM; 4 weeks; BDNF 10 ng/ml + GDNF 10 ng/ml

Dopaminergic neuron differentiation score, inactive:
O=C(O)[C@H](O)[C@@](O)(Cc1ccc(O)cc1)C(=O)O [piscidic acid] 0
COc1c(O)cc2oc3cc(O)c(CC=C(C)C)c(O)c3c(=O)c2c1CC=C(C)C [mangostine] 0
C=C[C@@]1(C)CC(=O)[C@]2(O)[C@@]3(C)[C@@H](O)CCC(C)(C)[C@@H]3[C@H](O)[C@H](OC(C)=O)[C@@]2(C)O1 [forskolin] 0

Same assay, conditions: library: Prestwick; 2 uM; 4 weeks; BDNF 10 ng/ml + GDNF 10 ng/ml

Dopaminergic neuron differentiation score, inactive:
Cc1cccc(C)c1NC(=O)CN1CCN(CCCC(c2ccc(F)cc2)c2ccc(F)cc2)CC1 [Lidoflazine] 0
Clc1ccc2c(c1)CCc1cccnc1C2=C1CCNCC1 [Desloratadine] 0
Cn1c([N+](=O)[O-])cnc1COC(N)=O [Ronidazole] 0
CCN(CC)CC#CCOC(=O)C(O)(c1ccccc1)C1CCCCC1 (stereo unspecified) [Oxybutynin chloride] 0
CCC[C@@H]1C[C@@H](C(=O)N[C@@H]([C@H]2O[C@H](SC)[C@H](O)[C@@H](O)[C@H]2O)[C@@H](C)O)N(C)C1 [Lincomycin hydrochloride] 0
C=CC(N)CCC(=O)O (stereo unspecified) [Vigabatrin] 0
CCC(=O)O[C@]1(C(=O)CCl)[C@@H](C)C[C@H]2[C@@H]3CCC4=CC(=O)C=C[C@]4(C)[C@@]3(F)[C@@H](O)C[C@@]21C [Clobetasol propionate] 0
O=C(O)c1ccccc1Nc1cccc(C(F)(F)F)c1 [Flufenamic acid] 0
CN(Cc1ccc(C(C)(C)C)cc1)Cc1cccc2ccccc12 [Butenafine Hydrochloride] 0

A run of entries of the results above:
Dopaminergic neuron differentiation score, inactive:
CCC(=O)O[C@]1(C(=O)CCl)[C@@H](C)C[C@H]2[C@@H]3CCC4=CC(=O)C=C[C@]4(C)[C@@]3(F)[C@@H](O)C[C@@]21C [Clobetasol propionate] 0
O=C(O)c1ccccc1Nc1cccc(C(F)(F)F)c1 [Flufenamic acid] 0
